Reference: PubChem BioAssay AID1259405 (NCATS, 2018)

Screen: 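Mouse-designed siRNAs used to find CHO productivity engineering targets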 (primary screen)
Cells: Chinese hamster CHO-K1 ovary cells with stable secreted eGFP expression
Reagents: single siRNA against mouse genes, 0.8 pmol siRNA per well (2 µl of 400 nM stock)
Timing: 3 days
Detection: 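Per-well intracellular GFP measured by laser scanning cytometry, plus viability from ATP luminescence, each relative to plate median of non-targeting control wells, in %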
Scale: GFP, % of control: higher = more GFP per well, higher productivity
Active means: 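Called active when intracellular GFP, relative to negative control, is at or above 120%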
The whole screen tested about 50,000 reagents; shown is an unselected part. In the full data, about 4,000 (8%) were called active. 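Mouse siRNA library applied to hamster cells; one well for each siRNA.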 Reagents against one gene are numbered here. Not all columns of the deposit are shown. No sequences are given here.

GFP, % of control, by gene symbol and reagent
Mturn: #1 71.5 inactive; #2 83.9 inactive; #3 104 inactive
Sftpa1 (surfactant associated protein A1): #1 141 active; #2 81.2 inactive
Tlr1 (toll-like receptor 1): #1 101 inactive; #2 65.7 inactive; #3 64.8 inactive
Podn (podocan): #1 72.8 inactive; #2 48.8 inactive; #3 38.6 inactive
Adcy2 (adenylate cyclase 2): #1 63.5 inactive; #2 60.7 inactive; #3 78.3 inactive
Ndrg4 (N-myc downstream regulated gene 4): #1 63.1 inactive; #2 58.7 inactive; #3 103 inactive
Poglut1 (protein O-glucosyltransferase 1): #1 61.4 inactive; #2 39 inactive; #3 76.5 inactive
Ankrd2 (ankyrin repeat domain 2): #1 74.9 inactive; #2 58.8 inactive; #3 136 active
Serpina12: #1 49.2 inactive; #2 35.5 inactive; #3 112 inactive
Trmt2a (TRM2 tRNA methyltransferase 2A): #1 103 inactive; #2 60.2 inactive; #3 24.5 inactive
Or14j10 (olfactory receptor family 14 subfamily J member 10): #1 111 inactive; #2 49.5 inactive; #3 52.5 inactive
Lap3 (leucine aminopeptidase 3): #1 75.6 inactive; #2 75.3 inactive; #3 80.4 inactive
Thbd (thrombomodulin): #1 107 inactive; #2 67.8 inactive; #3 64.3 inactive
Hoxb6 (homeobox B6): #1 116 inactive; #2 34 inactive; #3 105 inactive
Zfp169 (zinc finger protein 169): #1 77.9 inactive; #2 53.4 inactive
Xylt1 (xylosyltransferase 1): #1 106 inactive; #2 63.8 inactive; #3 117 inactive
Zmynd11 (zinc finger, MYND domain containing 11): #1 69.3 inactive; #2 148 active; #3 117 inactive
Pfpl (pore forming protein-like): #1 46.2 inactive; #2 69.6 inactive; #3 117 inactive
Gstt4 (glutathione S-transferase, theta 4): #1 95.5 inactive; #2 40.5 inactive; #3 60.9 inactive
Tti2 (TELO2 interacting protein 2): #1 42.4 inactive; #2 54 inactive; #3 107 inactive
Man1a (mannosidase 1, alpha): #1 122 active; #2 93.1 inactive; #3 57.1 inactive
Smarcal1 (SNF2 related chromatin remodeling ATPase like 1): #1 57.8 inactive; #2 156 active; #3 85.7 inactive
Fam98a (family with sequence similarity 98, member A): #1 64.3 inactive; #2 76 inactive; #3 82.3 inactive
Tsen15 (tRNA splicing endonuclease subunit 15): #1 49.8 inactive; #2 83.4 inactive; #3 78.9 inactive
Lcn8 (lipocalin 8): #1 90.5 inactive; #2 101 inactive; #3 132 active
Or4c52 (olfactory receptor family 4 subfamily C member 52): #1 69.6 inactive; #2 66 inactive; #3 66.5 inactive
Mink1 (misshapen-like kinase 1 (zebrafish)): #1 41.7 inactive; #2 45.6 inactive; #3 77.7 inactive
Batf (basic leucine zipper transcription factor, ATF-like): #1 73.3 inactive; #2 29.5 inactive; #3 49.8 inactive
Csgalnact2 (chondroitin sulfate N-acetylgalactosaminyltransferase 2): #1 89.1 inactive; #2 61 inactive; #3 91.9 inactive

Reagents listed so far with an active call (6):
GFP, % of control, by gene symbol and reagent
Sftpa1 (surfactant associated protein A1): #1 141 active
Ankrd2 (ankyrin repeat domain 2): #3 136 active
Zmynd11 (zinc finger, MYND domain containing 11): #2 148 active
Man1a (mannosidase 1, alpha): #1 122 active
Smarcal1 (SNF2 related chromatin remodeling ATPase like 1): #2 156 active
Lcn8 (lipocalin 8): #3 132 active
